Measured values from paper PMC8048261.
Results are given in words; binding and its absence hold for the method and conditions named. Binding seen in cells or lysates may run through a third protein. Some results given as binding are weak or reduced against the parent protein; the word gives no strength.

The chains behind the UniProt entries cited, without tags or fusion partners.
UniProt Q4U2R1: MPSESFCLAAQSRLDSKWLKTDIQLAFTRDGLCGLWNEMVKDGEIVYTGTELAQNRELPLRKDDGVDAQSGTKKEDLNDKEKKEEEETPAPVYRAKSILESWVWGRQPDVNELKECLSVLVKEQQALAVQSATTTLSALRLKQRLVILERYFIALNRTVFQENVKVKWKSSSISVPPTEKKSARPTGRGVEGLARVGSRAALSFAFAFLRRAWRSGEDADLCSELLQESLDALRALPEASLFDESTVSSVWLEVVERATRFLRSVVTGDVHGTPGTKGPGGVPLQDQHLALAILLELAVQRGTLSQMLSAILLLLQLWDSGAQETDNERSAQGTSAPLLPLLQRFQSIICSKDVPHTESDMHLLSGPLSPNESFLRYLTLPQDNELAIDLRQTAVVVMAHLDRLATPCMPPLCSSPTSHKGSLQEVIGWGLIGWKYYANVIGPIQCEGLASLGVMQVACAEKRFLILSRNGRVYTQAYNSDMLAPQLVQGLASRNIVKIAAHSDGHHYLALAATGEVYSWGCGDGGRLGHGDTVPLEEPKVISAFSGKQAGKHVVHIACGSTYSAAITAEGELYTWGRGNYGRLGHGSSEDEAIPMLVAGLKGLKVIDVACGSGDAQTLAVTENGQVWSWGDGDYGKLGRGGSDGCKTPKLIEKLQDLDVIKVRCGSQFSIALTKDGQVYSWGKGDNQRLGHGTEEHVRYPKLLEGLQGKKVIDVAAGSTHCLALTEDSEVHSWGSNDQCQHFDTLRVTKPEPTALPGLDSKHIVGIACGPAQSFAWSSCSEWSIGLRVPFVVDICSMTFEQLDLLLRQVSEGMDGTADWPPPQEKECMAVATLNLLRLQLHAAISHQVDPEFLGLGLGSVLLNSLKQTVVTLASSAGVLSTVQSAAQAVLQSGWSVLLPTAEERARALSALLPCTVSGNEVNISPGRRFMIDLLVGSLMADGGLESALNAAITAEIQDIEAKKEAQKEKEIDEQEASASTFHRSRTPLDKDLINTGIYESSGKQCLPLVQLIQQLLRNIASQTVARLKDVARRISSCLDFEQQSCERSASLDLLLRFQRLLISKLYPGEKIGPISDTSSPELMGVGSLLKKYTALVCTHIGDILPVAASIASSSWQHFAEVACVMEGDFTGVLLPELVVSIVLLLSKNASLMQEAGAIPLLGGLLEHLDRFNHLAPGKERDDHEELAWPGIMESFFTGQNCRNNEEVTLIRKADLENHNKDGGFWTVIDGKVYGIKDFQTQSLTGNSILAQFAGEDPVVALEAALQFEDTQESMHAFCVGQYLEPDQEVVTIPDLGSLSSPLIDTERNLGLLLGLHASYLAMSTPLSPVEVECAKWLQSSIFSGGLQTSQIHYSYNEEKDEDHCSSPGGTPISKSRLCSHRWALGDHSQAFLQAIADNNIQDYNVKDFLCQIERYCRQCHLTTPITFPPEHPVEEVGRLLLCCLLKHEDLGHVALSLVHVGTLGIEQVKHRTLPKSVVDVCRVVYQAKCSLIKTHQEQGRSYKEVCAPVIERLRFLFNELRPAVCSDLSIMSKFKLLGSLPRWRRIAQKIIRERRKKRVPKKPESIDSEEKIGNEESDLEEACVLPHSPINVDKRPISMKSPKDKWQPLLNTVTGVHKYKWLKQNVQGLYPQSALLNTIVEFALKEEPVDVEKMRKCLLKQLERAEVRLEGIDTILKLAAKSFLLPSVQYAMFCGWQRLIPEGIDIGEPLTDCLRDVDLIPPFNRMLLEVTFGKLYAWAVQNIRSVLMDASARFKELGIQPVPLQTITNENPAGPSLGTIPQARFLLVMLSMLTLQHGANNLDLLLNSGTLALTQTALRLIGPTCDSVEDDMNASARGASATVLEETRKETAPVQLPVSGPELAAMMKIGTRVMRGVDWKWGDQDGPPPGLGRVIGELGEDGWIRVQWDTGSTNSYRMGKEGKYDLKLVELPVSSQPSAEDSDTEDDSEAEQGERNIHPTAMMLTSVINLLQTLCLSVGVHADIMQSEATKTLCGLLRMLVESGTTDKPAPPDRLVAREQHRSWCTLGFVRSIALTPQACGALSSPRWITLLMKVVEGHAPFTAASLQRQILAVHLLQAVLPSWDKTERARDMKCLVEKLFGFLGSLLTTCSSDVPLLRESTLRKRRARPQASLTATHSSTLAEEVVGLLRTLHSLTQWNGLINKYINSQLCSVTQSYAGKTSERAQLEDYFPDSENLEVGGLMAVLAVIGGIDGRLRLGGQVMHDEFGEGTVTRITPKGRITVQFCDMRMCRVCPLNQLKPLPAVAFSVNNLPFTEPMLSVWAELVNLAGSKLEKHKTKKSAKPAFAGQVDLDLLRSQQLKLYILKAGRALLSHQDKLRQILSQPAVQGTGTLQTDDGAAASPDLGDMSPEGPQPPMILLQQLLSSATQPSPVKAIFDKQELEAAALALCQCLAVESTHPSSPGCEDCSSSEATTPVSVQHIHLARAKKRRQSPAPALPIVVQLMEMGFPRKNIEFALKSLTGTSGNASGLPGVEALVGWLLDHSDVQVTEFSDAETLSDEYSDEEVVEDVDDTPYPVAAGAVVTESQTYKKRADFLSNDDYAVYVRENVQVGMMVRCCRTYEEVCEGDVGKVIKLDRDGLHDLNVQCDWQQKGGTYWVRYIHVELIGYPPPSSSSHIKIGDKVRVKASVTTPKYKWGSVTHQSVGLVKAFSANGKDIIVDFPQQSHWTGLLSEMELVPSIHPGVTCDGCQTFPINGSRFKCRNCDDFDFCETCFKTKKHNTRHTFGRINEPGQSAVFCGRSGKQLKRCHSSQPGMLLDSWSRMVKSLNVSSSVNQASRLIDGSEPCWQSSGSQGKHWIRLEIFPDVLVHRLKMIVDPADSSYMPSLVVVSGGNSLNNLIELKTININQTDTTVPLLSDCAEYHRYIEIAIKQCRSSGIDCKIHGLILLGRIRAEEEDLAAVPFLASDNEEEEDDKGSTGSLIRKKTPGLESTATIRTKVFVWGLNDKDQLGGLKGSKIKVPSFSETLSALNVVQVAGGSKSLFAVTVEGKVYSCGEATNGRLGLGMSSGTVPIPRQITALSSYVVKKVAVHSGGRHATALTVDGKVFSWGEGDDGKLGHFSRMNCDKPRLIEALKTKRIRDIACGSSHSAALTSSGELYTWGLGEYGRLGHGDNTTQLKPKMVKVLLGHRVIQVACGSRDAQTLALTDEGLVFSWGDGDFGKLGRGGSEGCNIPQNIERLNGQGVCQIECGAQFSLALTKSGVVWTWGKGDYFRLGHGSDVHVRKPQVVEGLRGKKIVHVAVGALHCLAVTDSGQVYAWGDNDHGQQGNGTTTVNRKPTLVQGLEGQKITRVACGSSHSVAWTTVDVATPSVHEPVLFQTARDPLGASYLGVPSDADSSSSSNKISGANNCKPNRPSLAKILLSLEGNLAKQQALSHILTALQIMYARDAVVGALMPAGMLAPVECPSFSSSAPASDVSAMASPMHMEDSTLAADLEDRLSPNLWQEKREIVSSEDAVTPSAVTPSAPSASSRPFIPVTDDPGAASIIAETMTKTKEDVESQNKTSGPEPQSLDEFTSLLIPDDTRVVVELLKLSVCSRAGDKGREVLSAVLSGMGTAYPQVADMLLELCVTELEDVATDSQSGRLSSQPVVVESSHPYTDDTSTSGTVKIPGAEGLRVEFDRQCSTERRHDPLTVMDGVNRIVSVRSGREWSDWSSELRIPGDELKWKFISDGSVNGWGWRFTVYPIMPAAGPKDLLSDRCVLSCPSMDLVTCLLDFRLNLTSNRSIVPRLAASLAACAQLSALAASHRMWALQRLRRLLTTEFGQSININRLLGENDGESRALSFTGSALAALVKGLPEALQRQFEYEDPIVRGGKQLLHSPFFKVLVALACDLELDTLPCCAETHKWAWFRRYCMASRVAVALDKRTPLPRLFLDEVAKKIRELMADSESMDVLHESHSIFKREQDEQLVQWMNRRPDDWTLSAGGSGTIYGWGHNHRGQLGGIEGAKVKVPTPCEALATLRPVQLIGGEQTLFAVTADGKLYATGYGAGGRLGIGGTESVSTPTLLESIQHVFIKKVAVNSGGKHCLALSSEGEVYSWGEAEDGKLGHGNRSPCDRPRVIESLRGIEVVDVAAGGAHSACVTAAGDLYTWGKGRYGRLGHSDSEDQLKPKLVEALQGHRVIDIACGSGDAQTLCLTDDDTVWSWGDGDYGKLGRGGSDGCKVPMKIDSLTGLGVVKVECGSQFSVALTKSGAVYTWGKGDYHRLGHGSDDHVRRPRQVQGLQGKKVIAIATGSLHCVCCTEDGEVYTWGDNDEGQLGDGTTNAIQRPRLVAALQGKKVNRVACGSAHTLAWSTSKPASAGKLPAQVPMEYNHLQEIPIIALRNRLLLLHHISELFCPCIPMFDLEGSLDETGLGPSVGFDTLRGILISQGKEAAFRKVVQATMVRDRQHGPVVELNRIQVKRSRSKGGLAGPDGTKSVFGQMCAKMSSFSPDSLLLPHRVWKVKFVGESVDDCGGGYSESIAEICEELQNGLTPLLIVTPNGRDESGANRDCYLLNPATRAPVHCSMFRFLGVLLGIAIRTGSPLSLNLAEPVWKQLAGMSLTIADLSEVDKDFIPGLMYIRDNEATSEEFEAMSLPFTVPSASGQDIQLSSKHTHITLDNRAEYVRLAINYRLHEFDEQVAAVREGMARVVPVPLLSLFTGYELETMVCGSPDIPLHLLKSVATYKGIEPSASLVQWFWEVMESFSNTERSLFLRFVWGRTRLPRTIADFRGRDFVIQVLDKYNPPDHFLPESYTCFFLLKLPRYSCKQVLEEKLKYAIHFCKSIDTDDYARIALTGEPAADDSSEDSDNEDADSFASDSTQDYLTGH
UniProt Q3UP24: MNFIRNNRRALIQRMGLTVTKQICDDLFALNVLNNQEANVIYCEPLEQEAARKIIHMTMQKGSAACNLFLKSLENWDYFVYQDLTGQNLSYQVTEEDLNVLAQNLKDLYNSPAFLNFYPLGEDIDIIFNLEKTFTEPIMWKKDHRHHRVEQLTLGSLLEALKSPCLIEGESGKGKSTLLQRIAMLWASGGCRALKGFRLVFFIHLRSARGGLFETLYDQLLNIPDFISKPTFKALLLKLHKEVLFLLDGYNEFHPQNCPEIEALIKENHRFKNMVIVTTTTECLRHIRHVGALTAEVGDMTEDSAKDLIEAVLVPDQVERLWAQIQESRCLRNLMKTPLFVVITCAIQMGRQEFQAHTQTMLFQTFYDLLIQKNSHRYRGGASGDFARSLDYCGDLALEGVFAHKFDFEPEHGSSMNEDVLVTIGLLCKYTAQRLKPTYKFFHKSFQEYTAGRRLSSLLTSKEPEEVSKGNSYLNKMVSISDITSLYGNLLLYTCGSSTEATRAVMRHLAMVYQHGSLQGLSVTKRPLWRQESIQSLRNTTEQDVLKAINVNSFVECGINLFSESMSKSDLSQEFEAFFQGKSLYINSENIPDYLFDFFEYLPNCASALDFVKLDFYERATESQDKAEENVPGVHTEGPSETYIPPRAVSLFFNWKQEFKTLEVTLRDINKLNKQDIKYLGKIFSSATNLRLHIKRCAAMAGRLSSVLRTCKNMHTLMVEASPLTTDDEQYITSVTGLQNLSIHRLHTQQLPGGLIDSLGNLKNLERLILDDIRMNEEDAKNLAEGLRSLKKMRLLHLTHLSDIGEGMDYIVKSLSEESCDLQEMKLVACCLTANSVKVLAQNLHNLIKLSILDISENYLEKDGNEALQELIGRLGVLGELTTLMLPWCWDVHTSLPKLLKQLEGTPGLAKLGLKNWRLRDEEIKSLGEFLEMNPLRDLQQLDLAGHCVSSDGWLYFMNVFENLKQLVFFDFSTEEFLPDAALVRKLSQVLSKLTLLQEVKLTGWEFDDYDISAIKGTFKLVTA

Target: HERC2 (E3 ubiquitin ligase) (mouse (endogenous in BV-2)) (UniProt Q4U2R1)
Experiment: co-IP; supernatant of BV-2 cell lysate (RIPA lysis buffer with protease inhibitors); anti-HERC2 antibody and protein A agarose beads overnight at 4 °C; washed 3 times with lysis buffer; NLRC4 detected by Western blotting

binding: binds
Substance: NLR-family CARD-containing protein 4 (NLRC4) (from UniProt Q3UP24 1-1024)
